The supplement of paper PMC11732987, “Enantioselective OTUD7B fragment discovery through chemoproteomics screening and high-throughput optimisation” (Communications Chemistry, 2025)
The other results are listed elsewhere or left out. The data scatter; read single values as rough.

By UniProt entry, the sequences of proteins in these tests, tags left out. Where a name states a change or a piece, a line headed by the entry shows the natural chain unless it says otherwise. Residues count along the entry.
UniProt Q2VPK5: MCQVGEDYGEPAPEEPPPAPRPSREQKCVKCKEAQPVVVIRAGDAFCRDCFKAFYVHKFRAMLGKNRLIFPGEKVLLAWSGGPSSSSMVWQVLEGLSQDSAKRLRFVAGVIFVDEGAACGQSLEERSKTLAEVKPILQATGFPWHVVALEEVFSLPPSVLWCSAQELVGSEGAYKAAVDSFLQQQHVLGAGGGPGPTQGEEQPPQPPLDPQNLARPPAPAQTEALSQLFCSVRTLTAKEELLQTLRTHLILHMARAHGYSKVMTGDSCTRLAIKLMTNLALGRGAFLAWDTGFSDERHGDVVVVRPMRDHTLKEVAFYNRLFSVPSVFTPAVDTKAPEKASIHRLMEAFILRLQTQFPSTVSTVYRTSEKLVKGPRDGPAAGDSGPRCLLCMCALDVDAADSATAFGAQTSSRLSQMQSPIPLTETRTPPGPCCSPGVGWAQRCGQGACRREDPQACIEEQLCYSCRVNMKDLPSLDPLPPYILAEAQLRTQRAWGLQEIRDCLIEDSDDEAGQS
UniProt Q14203, whole entry, looked up: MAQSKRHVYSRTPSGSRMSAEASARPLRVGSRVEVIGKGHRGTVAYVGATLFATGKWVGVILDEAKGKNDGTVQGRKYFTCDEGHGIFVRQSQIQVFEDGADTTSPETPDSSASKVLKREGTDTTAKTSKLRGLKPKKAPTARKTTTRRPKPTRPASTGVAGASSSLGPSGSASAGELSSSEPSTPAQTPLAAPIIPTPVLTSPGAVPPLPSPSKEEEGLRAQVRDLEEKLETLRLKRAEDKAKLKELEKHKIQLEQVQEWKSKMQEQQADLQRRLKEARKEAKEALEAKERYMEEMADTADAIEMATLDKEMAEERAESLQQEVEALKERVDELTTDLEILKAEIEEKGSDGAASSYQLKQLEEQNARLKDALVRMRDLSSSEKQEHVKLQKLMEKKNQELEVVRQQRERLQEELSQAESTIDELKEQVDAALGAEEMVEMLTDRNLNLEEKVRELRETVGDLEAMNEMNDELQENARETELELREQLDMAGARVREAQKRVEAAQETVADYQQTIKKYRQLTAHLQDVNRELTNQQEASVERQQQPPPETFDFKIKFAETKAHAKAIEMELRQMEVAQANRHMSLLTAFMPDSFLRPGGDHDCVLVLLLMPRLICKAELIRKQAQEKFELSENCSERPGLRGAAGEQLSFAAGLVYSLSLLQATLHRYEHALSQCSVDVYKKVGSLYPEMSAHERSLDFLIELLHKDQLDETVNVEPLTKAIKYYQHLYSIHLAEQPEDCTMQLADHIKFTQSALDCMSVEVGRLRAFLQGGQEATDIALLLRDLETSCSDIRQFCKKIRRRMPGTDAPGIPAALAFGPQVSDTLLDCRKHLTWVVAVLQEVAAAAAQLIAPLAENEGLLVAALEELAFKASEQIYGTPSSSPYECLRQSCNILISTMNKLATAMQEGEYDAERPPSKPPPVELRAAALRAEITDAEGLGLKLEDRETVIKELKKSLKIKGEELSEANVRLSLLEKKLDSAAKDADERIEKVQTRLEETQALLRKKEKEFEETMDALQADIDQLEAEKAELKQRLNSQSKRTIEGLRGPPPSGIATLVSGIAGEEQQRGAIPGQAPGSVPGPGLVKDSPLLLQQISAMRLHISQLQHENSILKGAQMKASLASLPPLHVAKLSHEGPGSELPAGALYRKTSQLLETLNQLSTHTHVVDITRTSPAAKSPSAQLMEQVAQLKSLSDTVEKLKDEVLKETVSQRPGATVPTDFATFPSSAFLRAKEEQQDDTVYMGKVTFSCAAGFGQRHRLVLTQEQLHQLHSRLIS
UniProt Q9Y5B0, 405-434: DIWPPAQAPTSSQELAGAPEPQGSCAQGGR
UniProt Q9NR30: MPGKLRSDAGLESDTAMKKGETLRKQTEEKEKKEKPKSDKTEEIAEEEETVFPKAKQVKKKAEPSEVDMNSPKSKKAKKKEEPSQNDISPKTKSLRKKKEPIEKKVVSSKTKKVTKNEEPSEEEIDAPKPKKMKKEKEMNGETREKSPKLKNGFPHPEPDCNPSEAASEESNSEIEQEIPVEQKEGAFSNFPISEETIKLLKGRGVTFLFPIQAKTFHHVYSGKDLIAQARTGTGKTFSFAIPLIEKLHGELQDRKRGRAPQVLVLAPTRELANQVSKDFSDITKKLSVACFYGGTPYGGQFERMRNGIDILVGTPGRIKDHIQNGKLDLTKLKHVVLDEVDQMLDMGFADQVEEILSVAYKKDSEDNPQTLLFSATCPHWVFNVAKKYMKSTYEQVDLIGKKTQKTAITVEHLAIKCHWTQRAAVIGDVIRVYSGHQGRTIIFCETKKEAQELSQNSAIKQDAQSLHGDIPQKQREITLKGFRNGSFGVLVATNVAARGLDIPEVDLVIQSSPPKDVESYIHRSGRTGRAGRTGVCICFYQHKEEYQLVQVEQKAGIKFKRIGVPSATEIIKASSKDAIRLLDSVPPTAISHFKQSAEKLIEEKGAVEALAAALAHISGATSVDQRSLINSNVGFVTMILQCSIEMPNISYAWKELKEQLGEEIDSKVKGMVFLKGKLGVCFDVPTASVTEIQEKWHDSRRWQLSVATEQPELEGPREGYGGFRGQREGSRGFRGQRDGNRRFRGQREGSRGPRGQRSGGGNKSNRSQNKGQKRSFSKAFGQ

How the values were obtained:
[1] = compound: ClCC(=O)N[C@@H]1CCCc2ccccc12; assay: log2 mean competition ratio of IA-DTB cysteine labelling (DMSO/compound) (log2 ratio); higher = stronger cysteine engagement by compound; conditions: treatment time: 4 h, cell line lysate: HEK293T
Procedure: (§1)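 IA-DTB competitive cysteine chemoproteomics in HEK293T RIPA lysate. Lysates were treated with compound 29 or 30 at 50 or 200 µM for 4 h, then IA-DTB (500 µM, 1 h), trypsin-digested, NeutrAvidin-enriched and analysed by diaPASEF. Competition ratio = intensity DMSO / intensity compound (n=4 treated, n=64 DMSO); binding: mean log2 CR ≥ 1 and p ≤ 0.05 plus QC filters. Target is the cysteine site.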

[2] = compound: ClCC(=O)N[C@H]1CCCc2ccccc12; assay: as above; conditions: treatment time: 4 h, cell line lysate: HEK293T
Procedure: as §1

Target	log2 mean competition ratio ([1]; 50 µM)	log2 mean competition ratio ([1]; 200 µM)	log2 mean competition ratio ([2]; 50 µM)	log2 mean competition ratio ([2]; 200 µM)
CTU2 C268 (UniProt Q2VPK5)	-0.102	0.279	-0.0795	0.31
CUL4B C810	-0.297	0.00636	-0.315	0.136
DCTN1 C791 (UniProt Q14203)	-0.156	-0.0339	-0.09	-0.0343
DAZAP1 C85	0.114	-0.228	0.208	-0.163
CTDP1 C429 (UniProt Q9Y5B0)	-0.196	-0.487	0.384	0.0658
DDX21 C682 (UniProt Q9NR30)	-0.244	0.206	-0.217	0.101
